# According to PubChem BioAssay AID2551 (National Center for Advancing Translational Sciences (NCATS), 2010):
# By UniProt entry, the sequences of proteins in these tests, tags left out. Where a name states a change or a piece, a line headed by the entry shows the natural chain unless it says otherwise.
# UniProt P51450: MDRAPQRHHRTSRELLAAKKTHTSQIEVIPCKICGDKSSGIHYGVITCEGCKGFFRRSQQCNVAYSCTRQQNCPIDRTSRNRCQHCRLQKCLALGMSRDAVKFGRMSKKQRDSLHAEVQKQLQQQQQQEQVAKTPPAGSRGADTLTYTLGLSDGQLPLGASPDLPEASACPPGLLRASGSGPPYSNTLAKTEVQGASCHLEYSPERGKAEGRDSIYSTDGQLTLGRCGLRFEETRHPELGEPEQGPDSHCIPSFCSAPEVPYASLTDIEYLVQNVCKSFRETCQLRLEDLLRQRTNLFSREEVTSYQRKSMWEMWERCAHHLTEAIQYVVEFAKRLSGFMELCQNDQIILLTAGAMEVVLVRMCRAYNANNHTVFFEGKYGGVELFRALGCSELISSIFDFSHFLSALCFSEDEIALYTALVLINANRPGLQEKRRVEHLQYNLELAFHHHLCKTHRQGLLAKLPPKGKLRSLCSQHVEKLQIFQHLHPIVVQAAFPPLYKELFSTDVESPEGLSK
# Screen size: about 310,000 compounds; about 17,000 (5.5%) were called active. Inconclusive means that the source gave no clear call. Such entries were picked first, then a sample of the others. The call rests on the fitted dose curve; in most records, active means well fitted inhibition curve with a large enough effect; inconclusive means small, poorly fitted or top-dose-only effect, or effect the other way; inactive means no such curve, though single readings can be large or run the other way. Potencies of inconclusive entries are doubtful fits and often do not repeat.
# Molecular target: Nuclear receptor ROR-gamma (Mus musculus) (UniProt P51450)
# Test: qHTS for inhibitors of ROR gamma transcriptional activity; further: nearly all actives have a fitted effect of over 60% in size
# Settings: Drosophila S2 Gal4-RORgamma UAS-luciferase reporter, 20 h; activity change, negative = inhibition: at 53.6 µM (top of the series)
# Outline: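 Compounds are pin-transferred onto Drosophila Schneider cells expressing a copper-inducible Gal4–ROR gamma transactivation domain fusion. After 1 hr, copper sulfate is added to 700 uM final; luciferase is read 20 hr later.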
# On the % scale 0 is the no-effect control and ±100 the full control effect; potency means the concentration at half of the fitted maximal effect.
Structure (SMILES),Potency,"activity change, negative = inhibition"
COC(=O)c1cn[nH]c1NC(=S)Nc1ccc(Cl)c(Cl)c1,"inconclusive: 3.98 µM [inhibitor, full curve]",–
O=C(CC12CCC(CC1)C2)NCc1ccc2c(c1)OCO2,"inconclusive: 12.6 µM [activator, single point]",–
O=C(CSc1nccn1-c1ccccc1)NCc1ccc2c(c1)OCO2,"inconclusive: 0.282 µM [activator, full curve, poor fit]",–
Cc1ccc(S(=O)(=O)N2CCSC2)cc1C,–,inactive: 18.2%
Cn1c(N)c(C(=O)COC(=O)C2CC(=O)N(Cc3ccccc3)C2)c(=O)n(C)c1=O (stereo not drawn),"inconclusive: 35.5 µM [inhibitor, single point]",–
O=C(NC(CSCc1ccccc1)C(=O)N/N=C/c1ccc(O)cc1O)c1ccc([N+](=O)[O-])cc1 (stereo not drawn),"inconclusive: 35.5 µM [inhibitor, single point]",–
CCOC(=O)C1CCCCN1C(=O)CCc1c(C)nc2cc(-c3ccccc3)nn2c1C (stereo not drawn),"inconclusive: 17.8 µM [inhibitor, partial curve, poor fit]",–
CCOC(=O)N1CCN(C(=S)Nc2ccc3nc(N4CCN(CC)CC4)cc(C)c3c2)CC1,–,inactive: 2.5% [at 10 µM]
O=C(Nc1ccc(Oc2ccccc2)cc1)C1CCN(c2c3c(nc4ncnn24)CCC3)CC1,"inconclusive: 12.6 µM [activator, partial curve]",–
CCOC(=O)C1=C2NC(=O)c3ccccc3N2C(=O)C1,–,inactive: -5.45%
Cc1cccc(-n2c(Cn3nc(C)c([N+](=O)[O-])c3C)n[nH]c2=S)c1,active: 11.2 µM,–
C[C@H](NC(=O)c1nc[nH]c1C(=O)N[C@@H](Cc1ccccc1)C(=O)OC(C)(C)C)c1ccccc1,active: 7.08 µM,–
CCN(C(=O)c1ccc2c(Cl)c3c(nc2c1)CCC3)c1ccc(C)c(C)c1,"inconclusive: 35.5 µM [activator, single point]",–
CC(=O)Nc1ccc(S(=O)(=O)NC2CCCCCC2)cc1,–,inactive: 8.75%
Cc1ccc(C)c(NC(=O)Cc2ccc(S(=O)(=O)N3CCCCC3)s2)c1,"inconclusive: 22.4 µM [activator, single point]",–
COc1ccccc1NC(=O)N(Cc1ccc2c(c1)OCO2)Cc1nc2ccccc2c(=O)[nH]1,"inconclusive: 11.2 µM [inhibitor, partial curve]",–
CCOC(=O)C1=C(C)N(C)C(=S)NC1c1ccccc1Cl (stereo not drawn),active: 8.91 µM,–
Cc1ccc(S(=O)(=O)NCCNc2ccc([N+](=O)[O-])cc2C(F)(F)F)cc1,"inconclusive: 22.4 µM [activator, single point]",–
COCCn1c(-c2ccccc2)nc2ccccc21,"inconclusive: 11.2 µM [inhibitor, partial curve]",–
FC(F)(F)c1cc(NC(=S)Nc2ccc3ccccc3c2)cc(C(F)(F)F)c1,"inconclusive: 22.4 µM [inhibitor, single point]",–
CC(C)n1c(-c2ccc(C(C)(C)C)cc2)n[nH]c1=S,active: 4.47 µM,–
CCc1ccc(NC(=O)NNC(=O)c2ccc3ccccc3c2O)cc1,"inconclusive: 2.51 µM [inhibitor, full curve, poor fit]",–
Cn1c2ccccc2c2cc(/C=N/NC(=O)c3ccc(O)cc3O)ccc21,"inconclusive: 25.1 µM [inhibitor, single point]",–
Brc1ccc(CNc2nc3ccccc3n2CCN2CCCCC2)cc1,"inconclusive: 12.6 µM [inhibitor, partial curve]",–

# 3 entries drawn at random from those above, as already listed:
Structure (SMILES),Potency,"activity change, negative = inhibition"
Cn1c2ccccc2c2cc(/C=N/NC(=O)c3ccc(O)cc3O)ccc21,"inconclusive: 25.1 µM [inhibitor, single point]",–
Cc1ccc(S(=O)(=O)N2CCSC2)cc1C,–,inactive: 18.2%
Cc1ccc(S(=O)(=O)NCCNc2ccc([N+](=O)[O-])cc2C(F)(F)F)cc1,"inconclusive: 22.4 µM [activator, single point]",–

# The listing continues:

Structure (SMILES),Potency,"activity change, negative = inhibition"
Cn1c(N)c(C(=O)c2ccc(F)cc2F)c(=O)n(C)c1=O,"inconclusive: 0.141 µM [activator, full curve]",–
O=C(Sc1cccc2cccnc12)c1ccccc1Br,active: 0.794 µM,–
O=C(N/N=C/c1cn(-c2ccccc2)nc1-c1cc2ccccc2o1)c1cccnc1,active: 3.98 µM,–
O=S(=O)(c1ccccc1Cl)N1CCC(O)(c2ccc3c(c2)OCO3)CC1,"inconclusive: 12.6 µM [activator, single point]",–
O=C(O)CCn1[nH]c(=O)ccc1=O,"inconclusive: 0.447 µM [activator, single point]",–
Cc1cc(NC(=O)c2ccccc2O)nc(C)n1,"inconclusive: 14.1 µM [activator, partial curve]",–
COc1ccc(Sc2nc(-c3ccccn3)ncc2OC)cc1,active: 2.24 µM,–
CC(C)COC(=O)Nc1nnc(SCCOc2ccccc2)s1,–,inactive: -34%
O=C(CSc1nnc(-c2ccco2)o1)N1c2ccccc2CCc2ccccc21,–,inactive: 0.719%
CC1CCN(S(=O)(=O)c2ccc3[nH]cc(C(=O)NCCN4CCOCC4)c(=O)c3c2)CC1,–,inactive: 2.16%
O=C(Nc1ccc(S(=O)(=O)NC2=NCCCCC2)cc1)c1ccccc1Cl,–,inactive: 0.559%
CCc1ccc(NC(=O)C2CCN(S(=O)(=O)c3ccc4c(c3)NC(=O)CO4)CC2)cc1,"inconclusive: 10 µM [activator, partial curve]",–
COc1ccc(C2(CNC(=O)c3cccs3)CCOCC2)cc1,–,inactive: 16.5%
Cc1ccc(NNC(N)=S)cc1Cl,"inconclusive: 2 µM [inhibitor, partial curve]",–
Cc1ccc(S(=O)(=O)NCC(=O)OCc2nnc(-c3ccccc3)o2)cc1,–,inactive: -21.3%
Cc1nc2cc(Nc3nnc(-c4ccccc4)c4ccccc34)ccc2n1C,active: 7.08 µM,–
c1cc(-c2noc(CCC3CCCC3)n2)ccn1,"inconclusive: 6.31 µM [activator, partial curve, poor fit]",–
Cc1ccc(CNC(=O)Cc2ccc(-n3c(=O)[nH]c4ccsc4c3=O)cc2)cc1,–,inactive: 1.6%
CSc1nnc(-c2ccco2)c(-c2ccco2)n1,–,inactive: -54.1%
O=C(Nc1ccccc1Cl)c1ccc(S(=O)(=O)NCC2CCCO2)cc1 (stereo not drawn),–,inactive: 13.2%
COc1cccc(OC)c1C(=O)Nc1sc2c(c1C(N)=O)CCN(Cc1ccccc1)C2,–,inactive: 14.4%
COc1ccc2cc(C(=O)N3CCN(c4ccc(F)cc4)CC3)[nH]c2c1,–,inactive: 25.5%
c1csc(-c2csc(-c3cccs3)n2)c1,"inconclusive: 20 µM [inhibitor, partial curve, poor fit]",–
O=C(NC(=S)Nc1ccc(NC(=O)c2cccs2)cc1)c1cc2ccccc2o1,active: 7.08 µM,–
